PubChem BioAssay AID2685 (National Center for Advancing Translational Sciences (NCATS), 2010)
The other results are listed elsewhere or left out. Shown are side measurements of this screen, not its main read-out; they come without a call. The list favours compounds with an active or inconclusive main result. Potencies come from curve fits of mixed quality, noted in brackets.

Assay: qHTS Assay for Lipid Storage Modulators in Drosophila S3 Cells;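 on cell number change: cells counted by Cell Tracker Red CMTPX staining in the red channel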
Conditions: BODIPY lipid droplet fluorescence, 18-24 h; for cell number change: measured here: cell count max response, cells fed with added oleic acid
How it was run: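 Laser-scanning cytometry quantifies lipid droplet accumulation (500–530 nm total intensity; droplet/cell object ratio) in oleic acid-fed (400 uM added) Drosophila S3 cells treated with a concentration series. 20 uM Triacsin C defined 100% inhibition.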

[1] = measured here: lipid fluorescence (Fed channel) AC50, cells fed with added oleic acid
[2] = measured here: cell number channel AC50, cells fed with added oleic acid

Compound | cell number change [%] | AC50 [1] | AC50 [2]
CC(C)(C)Nc1nc(SCc2ccccc2)nc(N2CCOCC2)n1 | -25.2 | 5.17 µM [rising, partial curve] | –
COc1cc(-c2cc(=O)c3c(O)c(OC)c(OC)cc3o2)cc(OC)c1O | -42.4 | 29.1 µM [falling, single point] | 29.1 µM [falling, single point]
O=C(O)c1ccccc1OCc1nc2ccccc2s1 | -21.1 | – | –
CCOc1cccc(/C=N/NC(=S)Nc2cc(S(=O)(=O)N3CCOCC3)ccc2N2CCOCC2)c1O | -40.8 | 10.3 µM [falling, partial curve] | 32.6 µM [falling, single point]
COC(=O)c1ccccc1-n1cccc1C(=O)NP(=O)(N1CCOCC1)N1CCOCC1 | -17.4 | 32.6 µM [falling, single point] | –
O=C1CC(C2CCCO2)C(=O)N1c1cccc(Cl)c1 (stereo unspecified) | 15.6 | 6.51 µM [falling, single point] | –
Cc1oc(-c2ccccc2F)nc1CSCC(=O)NC1CC1 | 88.2 | 29.1 µM [rising, single point] | 16.4 µM [rising, single point]
Cc1ccc(-c2nc(NC(=O)CSc3nnnn3-c3ccccc3)ns2)cc1 | -8.07 | 0.517 µM [rising, single point] | –
COc1ccc(N/C=C(\C(C)=O)c2ccc(OC)c(OC)c2)cc1OC | 17.1 | – | –
NC(=O)c1ccc2c(=O)c(O)c(-c3cc(Cl)c(N)c(Cl)c3)[nH]c2c1 | -3.88 | – | –
CCOC(=O)N1CCC(NC(=O)CSCc2nc(-c3ccc(C)cc3)oc2C)CC1 | – | 1.64 µM [rising, single point] | –
Cc1cccc(-c2ncc(CN3CCCC(CO)(Cc4cccc(Cl)c4)C3)cn2)c1 (stereo unspecified) | -8.24 | 11.6 µM [falling, single point] | –
CCOC(=O)CN1N=C(/C=C/c2ccc(OCC)cc2)CCC1=O | -16.9 | 2.06 µM [rising, partial curve] | 1.46 µM [rising, full curve]
Cc1cc(C(=O)NN=C2CCCCCC2)c(C)o1 | -2.68 | 1.64 µM [falling, partial curve] | –
CCN(CC1CCCO1)C(=O)c1cc(COc2ccccc2SC)on1 (stereo unspecified) | 50.8 | – | 25.9 µM [rising, single point]
COCC1CCCN(C(=O)c2ccc3oc(C(C)C)nc3c2)C1 (stereo unspecified) | -40.6 | – | 29.1 µM [falling, single point]
Cc1nn(Cc2cccc(C(=O)NC(C)c3ccc(C(C)(C)C)cc3)c2)c(C)c1[N+](=O)[O-] (stereo unspecified) | -20.6 | 20.6 µM [falling, single point] | –
CCC(C)NC(=O)c1cc(-c2cccs2)nc2ccccc12 (stereo unspecified) | -0.926 | 0.13 µM [rising, full curve, poor fit] | –
NC(=O)c1nsc(C(=O)N(CC(=O)NC2CCCC2)Cc2ccc3c(c2)OCO3)c1N | 29.3 | 11.6 µM [rising, partial curve, poor fit] | –

Given in CSV form: part of the list above
Compound,cell number change [%],AC50 [1],AC50 [2]
CCOc1cccc(/C=N/NC(=S)Nc2cc(S(=O)(=O)N3CCOCC3)ccc2N2CCOCC2)c1O,-40.8,"10.3 µM [falling, partial curve]","32.6 µM [falling, single point]"
COC(=O)c1ccccc1-n1cccc1C(=O)NP(=O)(N1CCOCC1)N1CCOCC1,-17.4,"32.6 µM [falling, single point]",–
O=C1CC(C2CCCO2)C(=O)N1c1cccc(Cl)c1 (stereo unspecified),15.6,"6.51 µM [falling, single point]",–

(further entries)

Compound | cell number change [%] | AC50 [1] | AC50 [2]
COc1cc(CC(=O)OCC(=O)Nc2ccc3c(c2)OCCO3)cc(OC)c1OC | -2.09 | 6.51 µM [rising, partial curve, poor fit] | –
N=c1c(S(=O)(=O)c2ccc(Br)cc2)cc2c(=O)n3ccccc3nc2n1C1CCCC1 | 27.6 | 0.651 µM [falling, partial curve, poor fit] | –
Cc1cc(N2CCN(c3ncccn3)CC2)nc2c(C)cccc12 | 23.2 | – | –
C[C@@H](C(=O)NCc1ccco1)N1C(=O)N2CCc3c([nH]c4ccccc34)[C@@]2(C)C1=O | 9.71 | 29.1 µM [rising, single point] | –
CC(=O)Nc1ccc(C=C(C(C)=O)C(C)=O)cc1 | -33.4 | – | 25.9 µM [falling, single point]
Cc1c(-c2ccc(Cl)cc2Cl)nc2ccccc2c1C(=O)NCCN1CCOCC1 | 19.8 | 16.4 µM [rising, single point] | –
C/C(=N\NC(=O)c1ccoc1C)c1ccccc1O | 7.5 | 29.1 µM [falling, single point] | –
COc1ccccc1Cc1nnc(NC(=O)C2CCN(C(=O)c3ccco3)CC2)s1 | 23.9 | 0.103 µM [falling, full curve, poor fit] | –
C=CCn1c(C(CCC(C)C)CC(C)(C)O)n[nH]c1=S (stereo unspecified) | 45.2 | – | 2.59 µM [rising, full curve]
O=c1c(Cc2ccccc2)c(O)nc2n1CCCS2 | -6.57 | 2.06 µM [falling, partial curve] | –
c1ccc2c(c1)nc1n2CCN1CCNC1CCCCC1 | -74.4 | – | 29.1 µM [falling, partial curve, poor fit]
CCOc1ccccc1CN1CCNC(=O)C1CC(=O)N(C)CCC1CCOCC1 (stereo unspecified) | 17.3 | 29.1 µM [rising, single point] | –
Cc1cc(-c2cc(-c3ccc(Cl)cc3)on2)nc(NC2CCCC2)n1 | -0.164 | 0.0651 µM [rising, full curve, poor fit] | –
S=c1[nH]nc(Cc2ccccc2)n1-c1cccc2ccccc12 | 20.7 | – | 0.103 µM [rising, full curve, poor fit]
O=C(NCc1cccc2ccccc12)Nc1ccccc1 | 32.9 | 29.1 µM [rising, single point] | 23.1 µM [rising, single point]
Cc1ccc(C(=O)Nc2ccccc2[N+](=O)[O-])cc1S(=O)(=O)N1CCOCC1 | 13.5 | – | 5.17 µM [rising, partial curve]
N#CC1=C(N)Oc2c(oc(CO)cc2=O)C12C(=O)Nc1ccc(Cl)cc12 (stereo unspecified) | 4.12 | 0.13 µM [falling, full curve, poor fit] | –
CCOC(=O)N1CCN(C(=O)c2oc3ccc(S(=O)(=O)N(CC)CC)cc3c2C)CC1 | -20.9 | 29.1 µM [falling, single point] | –
